Test results: patent publication US20090011464A1 (published 2009)
No constants are given. Whether binding was seen depends on the method and setting. For some assays here: A result given as binding can be weak or reduced; the word gives no strength.

Legend:
[1] = molecular target: α4β7 integrin on cat lymphocytes (cat); assay: flow cytometry on cat whole-blood lymphocytes, 15 µg/ml biotinylated antibody
[2] = molecular target: α4β7 integrin on guinea pig lymphocytes (guinea pig); assay: flow cytometry, biotinylated antibody on whole-blood lymphocytes

B1: murine Act-1 monoclonal antibody (antibody, mouse IgG1, V domains shown)
VH: QVQLQQPGAELVKPGTSVKLSCKGYGYTFTSYWMHWVKQRPGQGLEWIGEIDPSESNTNYNQKFKGKATLTVDISSSTAYMQLSSLTSEDSAVYYCARGGYDGWDYAIDYWGQGTSVTVSS
VL: DVVVTQTPLSLPVSFGDQVSISCRSSQSLAKSYGNTYLSWYLHKPGQSPQLLIYGISNRFSGVPDRFSGSGSGTDFTLKISTIKPEDLGMYYCLQGTHQPYTFGGGTKLEIK
notes: Mouse IgG1/kappa from the Act-1 hybridoma (ATCC PTA-3663); also called mAb Act-1; mouse Act-1 antibody
binding [1]: binds
binding [2]: no binding (tested: 15 µg/ml)
